The record followed here is paper PMC4070987.

Amino acid sequences for entries named in this document (tags omitted). Residues count along the entry.
UniProt P23694, residues 17-487: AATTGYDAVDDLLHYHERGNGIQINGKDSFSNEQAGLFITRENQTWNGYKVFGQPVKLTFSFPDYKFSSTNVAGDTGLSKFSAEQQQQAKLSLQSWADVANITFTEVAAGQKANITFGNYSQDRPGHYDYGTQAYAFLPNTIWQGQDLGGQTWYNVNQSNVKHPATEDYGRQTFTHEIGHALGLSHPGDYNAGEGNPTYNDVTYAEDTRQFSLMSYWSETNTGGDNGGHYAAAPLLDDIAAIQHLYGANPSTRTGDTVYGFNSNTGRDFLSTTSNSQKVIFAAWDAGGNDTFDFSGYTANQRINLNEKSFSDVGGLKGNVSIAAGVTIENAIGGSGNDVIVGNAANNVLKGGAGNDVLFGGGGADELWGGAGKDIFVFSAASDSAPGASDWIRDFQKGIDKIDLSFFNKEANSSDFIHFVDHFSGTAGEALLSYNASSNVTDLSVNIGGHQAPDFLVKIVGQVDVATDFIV

Results are given in words; binding and its absence hold for the method and conditions named. Some results given as binding are weak or reduced against the parent protein; the word gives no strength. Where a sequence is shown, tags or fusion partners need not be part of it.

The assay concerns the target Serralysin from Serratia marcescens (SmP) (Serratia marcescens) (UniProt P23694). Put plainly: SEC; analytical gel filtration, TOSOH QC-PAK GFC 200 column on HPLC, refolding buffer (50 mM Tris, 150 mM NaCl, 2 mM CaCl2); inhibitor mixed in equimolar ratio with refolded protease; UV absorbance at 220 and 280 nm; both purified. A general note: Size exclusion chromatography separates by hydrodynamic size, large species first.

B1: aprI inhibitor (AP Inh), alkaline protease inhibitor from Pseudomonas aeruginosa, Smt3 tag removed (protein, UniProt Q03026 27-131)
chain: SLILLSASDLAGQWTLQQDEAPAICHLELRDSEVAEASGYDLGGDTACLTRWLPSEPRAWRPTPAGIALLERGGLTLMLLGRQGEGDYRVQKGDGGQLVLRRATP
In the case of B1, the binding entry is “binds”.
